Article doi:10.1101/2020.02.05.936237
Substitutions are numbered along the chain they refer to. Names may count otherwise. Read-outs that look alike come from different tables or passages of the source. No constants are given. Whether binding was seen depends on the method and setting. Some entries that bind do so weakly or less than the wild type. Sequences can lack the tags named with a protein. One block for each binder: values may come before it.

What was measured:
Test in all cases: two-hybrid
[1] = biological target: T1, BD-myc-Imp4 (wild type) (S. cerevisiae) (UniProt P53941)
T1 sequence: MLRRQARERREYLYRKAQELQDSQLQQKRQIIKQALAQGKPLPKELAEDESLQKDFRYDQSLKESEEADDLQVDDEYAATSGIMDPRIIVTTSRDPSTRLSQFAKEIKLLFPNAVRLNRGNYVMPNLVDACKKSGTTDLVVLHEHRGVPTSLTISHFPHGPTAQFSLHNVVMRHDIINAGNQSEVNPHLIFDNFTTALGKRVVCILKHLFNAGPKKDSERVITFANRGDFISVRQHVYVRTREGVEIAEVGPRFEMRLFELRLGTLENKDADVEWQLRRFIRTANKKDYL

[2] = biological target: T2, BD-myc-Imp4 P252L (S. cerevisiae) (UniProt P53941)
T2 sequence: T1 sequence with P252L

[3] = biological target: T1, BD-myc-Imp4 (wild type) (S. cerevisiae); remark: listed apart in the source
[4] = biological target: T3, BD-myc-Imp4 V170F (S. cerevisiae) (UniProt P53941)
T3 sequence: T1 sequence with V170F

[5] = biological target: T4, BD-myc-Dhr1 (wild type) (S. cerevisiae) (UniProt Q04217)
T4 sequence: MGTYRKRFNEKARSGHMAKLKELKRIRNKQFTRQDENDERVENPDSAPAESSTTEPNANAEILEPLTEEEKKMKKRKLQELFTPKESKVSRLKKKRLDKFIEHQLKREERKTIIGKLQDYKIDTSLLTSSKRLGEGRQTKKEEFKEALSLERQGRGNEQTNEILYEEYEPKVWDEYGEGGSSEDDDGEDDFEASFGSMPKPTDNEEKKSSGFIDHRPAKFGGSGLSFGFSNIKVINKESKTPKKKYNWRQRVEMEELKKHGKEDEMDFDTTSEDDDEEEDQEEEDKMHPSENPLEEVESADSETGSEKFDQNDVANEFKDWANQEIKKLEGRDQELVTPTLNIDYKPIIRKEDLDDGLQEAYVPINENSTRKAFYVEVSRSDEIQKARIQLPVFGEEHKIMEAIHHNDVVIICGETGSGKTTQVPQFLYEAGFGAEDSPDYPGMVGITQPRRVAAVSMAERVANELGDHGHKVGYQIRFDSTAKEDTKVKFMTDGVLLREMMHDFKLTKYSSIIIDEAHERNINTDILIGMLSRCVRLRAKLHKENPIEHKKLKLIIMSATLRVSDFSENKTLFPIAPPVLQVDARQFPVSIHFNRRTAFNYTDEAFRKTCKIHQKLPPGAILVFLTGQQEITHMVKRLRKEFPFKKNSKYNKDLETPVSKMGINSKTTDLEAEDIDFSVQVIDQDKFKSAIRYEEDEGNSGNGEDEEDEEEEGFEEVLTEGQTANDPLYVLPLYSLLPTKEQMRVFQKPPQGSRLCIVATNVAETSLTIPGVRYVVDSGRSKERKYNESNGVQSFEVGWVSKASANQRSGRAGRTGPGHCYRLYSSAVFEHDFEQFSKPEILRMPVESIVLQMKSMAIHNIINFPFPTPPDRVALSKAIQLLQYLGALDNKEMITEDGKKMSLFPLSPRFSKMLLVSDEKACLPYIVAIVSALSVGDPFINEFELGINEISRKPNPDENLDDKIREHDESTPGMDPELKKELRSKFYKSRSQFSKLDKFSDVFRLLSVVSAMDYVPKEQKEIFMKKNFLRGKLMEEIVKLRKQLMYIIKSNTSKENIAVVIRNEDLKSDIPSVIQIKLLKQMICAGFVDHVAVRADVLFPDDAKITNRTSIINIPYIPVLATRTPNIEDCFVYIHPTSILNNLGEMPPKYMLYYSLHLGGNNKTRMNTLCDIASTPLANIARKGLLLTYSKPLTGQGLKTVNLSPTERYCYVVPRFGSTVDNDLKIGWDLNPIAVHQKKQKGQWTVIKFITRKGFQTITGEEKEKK

- binding [1]: binds
- binding [2]: no binding
- binding [3]: binds
- binding [4]: no binding
B1: Utp2-AD-HA (wild-type Utp2 with an HA-tagged GAL4 activating domain fused to its C-terminus) (protein, UniProt Q99207 1-810)
chain: MAGSQLKNLKAALKARGLTGQTNVKSKNKKNSKRQAKEYDREEKKKAIAEIREEFNPFEIKAARNKRRDGLPSKTADRIAVGKPGISKQIGEEQRKRAFEARKMMKNKRGGVIDKRFGERDKLLTEEEKMLERFTRERQSQSKRNANLFNLEDDEDDGDMFGDGLTHLGQSLSLEDELANDEEDFLASKRFNEDDAELQQPQRKKTKAEVMKEVIAKSKFYKQERQKAQGIMEDQIDNLDDNFEDVMSELMMTQPKKNPMEPKTDLDKEYDIKVKELQLDKRAAPSDRTKTEEEKNAEAEEKKRELEQQRLDRMNGMIELEEGEERGVEDLDDGFWENEEDYEDDNDGIADSDDDIKFEDQGRDEGFSQILKKKNISISCPRTHDALLDQVKKLDLDDHPKIVKNIIKAYQPKLAEGNKEKLGKFTAVLLRHIIFLSNQNYLKNVQSFKRTQNALISILKSLSEKYNRELSEECRDYINEMQARYKKNHFDALSNGDLVFFSIIGILFSTSDQYHLVITPALILMSQFLEQIKFNSLKRIAFGAVLVRIVSQYQRISKRYIPEVVYFFQKILLTFIVEKENQEKPLDFENIRLDSYELGLPLDVDFTKKRSTIIPLHTLSTMDTEAHPVDQCVSVLLNVMESLDATISTVWKSLPAFNEIILPIQQLLSAYTSKYSDFEKPRNILNKVEKLTKFTEHIPLALQNHKPVSIPTHAPKYEENFNPDKKSYDPDRTRSEINKMKAQLKKERKFTMKEIRKDAKFEARQRIEEKNKESSDYHAKMAHIVNTINTEEGAEKNKYERERKLRGGKK

- binding [1]: binds
B2: Utp2-DPE (A2D, L6P, K7E) as Utp2-AD-HA (protein, UniProt Q99207 1-810)
chain: B1 chain with A2D, L6P, K7E

- binding [5]: binds
B3: AD-HA-Utp14 (protein, UniProt Q04500 1-899)
chain: MAKKKSKSRSKSSRRVLDALQLAEREINGEFDNSSDNDKRHDARRNGTVVNLLKRSKGDTNSDEDDIDSESFEDEELNSDEALGSDDDYDILNSKFSQTIRDKKENANYQEEEDEGGYTSIDEEDLMPLSQVWDMDEKTAQSNGNDDEDASPQLKLQDTDISSESSSSEESESESEDDEEEEDPFDEISEDEEDIELNTITSKLIDETKSKAPKRLDTYGSGEANEYVLPSANAASGASGKLSLTDMMNVIDDRQVIENANLLKGKSSTYEVPLPQRIQQRHDRKAAYEISRQEVSKWNDIVQQNRRADHLIFPLNKPTEHNHASAFTRTQDVPQTELQEKVDQVLQESNLANPEKDSKFEELSTAKMTPEEMRKRTTEMRLMRELMFREERKARRLKKIKSKTYRKIKKKELMKNRELAAVSSDEDNEDHDIARAKERMTLKHKTNSKWAKDMIKHGMTNDAETREEMEEMLRQGERLKAKMLDRNSDDEEDGRVQTLSDVENEEKENIDSEALKSKLGKTGVMNMAFMKNGEAREREANKETLRQLRAVENGDDIKLFESDEEETNGENIQINKGRRIYTPGSLESNKDMNELNDHTRKENKVDESRSLENRLRAKNSGQSKNARTNAEGAIIVEEESDGEPLQDGQNNQQDEEAKDVNPWLANESDEEHTVKKQSSKVNVIDKDSSKNVKAMNKMEKAELKQKKKKKGKSNDDEDLLLTADDSTRLKIVDPYGGSDDEQGDNVFMFKQQDVIAEAFAGDDVVAEFQEEKKRVIDDEDDKEVDTTLPGWGEWAGAGSKPKNKKRKFIKKVKGVVNKDKRRDKNLQNVIINEKVNKKNLKYQSSAVPFPFENREQYERSLRMPIGQEWTSRASHQELIKPRIMTKPGQVIDPLKAPFK
